Measured values as given in patent US20260028352A1, “MACROCYCLIC IMIDAZO [1,2-B] PYRIDAZINE DERIVATIVE, PREPARATION METHOD THEREFOR, AND USE THEREOF” (SUZHOU LANGRUI BIOPHARMACEUTICAL CO., LTD., priority 2022, published 2026).
For at least one compound, name, drawing or mass did not settle the structure. Some entries repeat one wording, which the source may state once for all of them.

Tests used:
Type in all cases: cell-based
Settings in all cases: comparison in words
[1] = tested on: Ba/F3-TPM3-NTRK1-G595R cells; assay: Growth inhibition of Ba/F3-TPM3-NTRK1-G595R cells (Cell Titer-Glo)
Experimental: (§1) Then the solutions were subjected to a gradient dilution with DMSO: a clean, sterile V-bottom 96-well microplate was placed in the biological safety cabinet. First, 4 μL of DMSO was added to well B2 and 10 μL of DMSO was added to wells B3-B11 respectively; Next, 6 μL of the 10 mM solution was added to well B2. The microplate was pipetted up and down 10 times for mixing. […] Mixing was performed by pipetting up and down 10 times. The solution was diluted in order until well B10. only DMSO was added to well B11 (no compound).
(§2) 6× Compound Solution Preparation (6-fold dilution, × represents dilution factor): (Initial final concentration: 10 μM), a clean, sterile V-bottom 96-well microplate was placed in the biological safety cabinet. 99 μL of cell culture medium was added to each well from B2 to G11. By using a 12-channel pipettor, 1 μL of the compound solution prepared in the previous step was added into the corresponding wells. The solutions were pipetted up and down 10 times to mix the solutions. The highest concentration of compound in this step was 60 μM.
(§3) Treatment of Cells: the above-prepared cell culture plate was taken out of the incubator. 20 μL of compound solution from each well was added to the corresponding cell culture wells. The lowest pipetting speed was used and touching the bottom of the plate was avoided. The culture plate was gently shaked to mix the compound solution, then the plate was returned to the incubator for further culture for 72 hours.
(§4) The highest treatment concentration of the compound was 10 μM. After 72 hours of treatment, the Cell Titer-Glo (CTG) assay was performed. First, the cell culture plate was removed from the CO2 incubator and allowed to stand at room temperature for 30 minutes to ensure uniform temperature of the plate. The pre-prepared Cell Titer-Glo reagent (following the manufacturer's instructions) was taken and allowed to stand at room temperature to thaw. 60 μL of Cell Titer-Glo reagent was added to each well containing cells. The cells were incubated on a horizontal shaker in a dark place at 225 rpm for 1 hour at room temperature. Then, a Tecan Spark microplate reader was used to read the plate using chemiluminescence according to the manufacturer's instructions.

[2] = tested on: Ba/F3-TPM3-NTRK1-WT cells; assay: Growth inhibition of Ba/F3-TPM3-NTRK1-WT cells (Cell Titer-Glo)
Experimental: as §1, §2, §3, §4

[3] = tested on: Ba/F3-TPM3-NTRK1-G667C cells; assay: Growth inhibition of Ba/F3-TPM3-NTRK1-G667C cells (Cell Titer-Glo)
Experimental: as §1, §2, §3, §4

For `Fc1ccc2c(c1)[C@H]1C[C@H](F)CN1c1ccc3ncc(n3n1)-c1nccc(n1)CCO2` [Example I-86, (3^2R,3^4S,E)-3^4,4^5-difluoro-5-oxa-2(3,6)-imidazo[1,2-b]pyridazina-1(2,4)-pyrimidina-3(1,2)-pyrrolidina-4(1,2)-benzenacycloheptaphane], the “inhibitory ability compared with Loxo-195 and TPX-0005” value [1] was “stronger inhibitory abilities than compounds Loxo-195 and TPX-0005”, the “inhibitory ability compared with Loxo-195 and TPX-0005” value [2] was “stronger than that of compounds Loxo-195 and TPX-0005” and the “inhibitory ability compared with TPX-0005” value [3] was “stronger than that of compound TPX-0005”.

For `Fc1cnc2c(c1)[C@H]1C[C@H](F)CN1c1ccc3ncc(n3n1)-c1nccc(n1)CCO2` [Example I-88, (3^2R,3^4S,E)-3^4,4^5-difluoro-5-oxa-2(3,6)-imidazo[1,2-b]pyridazina-1(2,4)-pyrimidina-4(3,2)-pyridina-3(1,2)-pyrrolidinacycloheptaphane], the “inhibitory ability compared with Loxo-195 and TPX-0005” value [1] was “stronger inhibitory abilities than compounds Loxo-195 and TPX-0005”, the “inhibitory ability compared with Loxo-195 and TPX-0005” value [2] was “stronger than that of compounds Loxo-195 and TPX-0005” and the “inhibitory ability compared with TPX-0005” value [3] was “stronger than that of compound TPX-0005”.

In the case of `Fc1ccc2c(c1)[C@H]1C[C@H](F)CN1c1ccc3ncc(n3n1)-c1cc(cnn1)CCO2` [Example I-92, (3^2R,3^4S,E)-3^4,4^5-difluoro-5-oxa-2(3,6)-imidazo[1,2-b]pyridazina-1(3,5)-pyridazina-3(1,2)-pyrrolidina-4(1,2)-benzenacycloheptaphane], the “inhibitory ability compared with Loxo-195 and TPX-0005” value [1] was “stronger inhibitory abilities than compounds Loxo-195 and TPX-0005”, the “inhibitory ability compared with Loxo-195 and TPX-0005” value [2] was “stronger than that of compounds Loxo-195 and TPX-0005” and the “inhibitory ability compared with TPX-0005” value [3] was “stronger than that of compound TPX-0005”.

With `Fc1cnc2c(c1)[C@H]1C[C@H](F)CN1c1ccc3ncc(n3n1)-c1cc(cnn1)CCO2` [Example I-94, (3^2R,3^4S,E)-3^4,4^5-difluoro-5-oxa-2(3,6)-imidazo[1,2-b]pyridazina-1(3,5)-pyridazina-4(3,2)-pyridina-3(1,2)-pyrrolidinacycloheptaphane] the “inhibitory ability compared with Loxo-195 and TPX-0005” value [1] was “stronger inhibitory abilities than compounds Loxo-195 and TPX-0005”, the “inhibitory ability compared with Loxo-195 and TPX-0005” value [2] was “stronger than that of compounds Loxo-195 and TPX-0005” and the “inhibitory ability compared with TPX-0005” value [3] was “stronger than that of compound TPX-0005”.

In the case of `C[C@H]1Cc2ccnc(n2)-c2cnc3ccc(nn23)N2C[C@@H](F)C[C@@H]2c2cc(F)cnc2O1` [Example I-96, (3^2R,3^4S,6S,E)-3^4,4^5-difluoro-6-methyl-5-oxa-2(3,6)-imidazo[1,2-b]pyridazina-1(2,4)-pyrimidina-4(3,2)-pyridina-3(1,2)-pyrrolidinacycloheptaphane], the “inhibitory ability compared with Loxo-195 and TPX-0005” value [1] was “stronger inhibitory abilities than compounds Loxo-195 and TPX-0005”, the “inhibitory ability compared with Loxo-195 and TPX-0005” value [2] was “stronger than that of compounds Loxo-195 and TPX-0005” and the “inhibitory ability compared with TPX-0005” value [3] was “stronger than that of compound TPX-0005”.

In the case of `C[C@@H]1Cc2cc(ncn2)-c2cnc3ccc(nn23)N2C[C@@H](F)C[C@@H]2c2cc(F)ccc2O1` [Example I-98, (3^2R,3^4S,6R,E)-3^4,4^5-difluoro-6-methyl-5-oxa-2(3,6)-imidazo[1,2-b]pyridazina-1(4,6)-pyrimidina-3(1,2)-pyrrolidina-4(1,2)-benzenacycloheptaphane], the “inhibitory ability compared with Loxo-195 and TPX-0005” value [1] was “stronger inhibitory abilities than compounds Loxo-195 and TPX-0005”, the “inhibitory ability compared with Loxo-195 and TPX-0005” value [2] was “stronger than that of compounds Loxo-195 and TPX-0005” and the “inhibitory ability compared with TPX-0005” value [3] was “stronger than that of compound TPX-0005”.
